Laboratory results from the M2OR odorant receptor database.
Residue numbers refer to the chain shown, from its start. The list shows a part of the results. The calls were merged from several studies; some rest on single wells.

Chains of the proteins cited; added tags and fusions are not shown. Chains listed by the source or under a name are the forms on record and can include a tag or linker.
O13A1, as listed by the source: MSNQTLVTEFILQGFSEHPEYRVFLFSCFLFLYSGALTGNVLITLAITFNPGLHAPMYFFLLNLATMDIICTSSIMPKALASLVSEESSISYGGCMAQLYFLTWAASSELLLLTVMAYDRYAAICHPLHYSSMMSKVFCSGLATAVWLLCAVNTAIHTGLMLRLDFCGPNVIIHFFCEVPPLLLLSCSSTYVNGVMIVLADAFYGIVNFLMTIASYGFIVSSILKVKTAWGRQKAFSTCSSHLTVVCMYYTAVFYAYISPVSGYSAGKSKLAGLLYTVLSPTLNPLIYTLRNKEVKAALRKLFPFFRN
O11H2, as listed by the source: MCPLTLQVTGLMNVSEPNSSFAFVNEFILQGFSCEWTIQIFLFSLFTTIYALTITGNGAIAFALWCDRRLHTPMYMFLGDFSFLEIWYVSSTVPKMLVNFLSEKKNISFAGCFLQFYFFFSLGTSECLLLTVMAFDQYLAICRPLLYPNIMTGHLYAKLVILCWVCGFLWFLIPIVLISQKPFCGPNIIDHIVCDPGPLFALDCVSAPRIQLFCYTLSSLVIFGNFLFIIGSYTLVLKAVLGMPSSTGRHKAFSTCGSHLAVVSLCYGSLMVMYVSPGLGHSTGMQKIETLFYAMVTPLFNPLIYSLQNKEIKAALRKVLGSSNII

How the values were obtained:
Conditions in all cases: stereoisomer not certain
O10J3 = tested on: T1, O10J3
T1 sequence (whole entry): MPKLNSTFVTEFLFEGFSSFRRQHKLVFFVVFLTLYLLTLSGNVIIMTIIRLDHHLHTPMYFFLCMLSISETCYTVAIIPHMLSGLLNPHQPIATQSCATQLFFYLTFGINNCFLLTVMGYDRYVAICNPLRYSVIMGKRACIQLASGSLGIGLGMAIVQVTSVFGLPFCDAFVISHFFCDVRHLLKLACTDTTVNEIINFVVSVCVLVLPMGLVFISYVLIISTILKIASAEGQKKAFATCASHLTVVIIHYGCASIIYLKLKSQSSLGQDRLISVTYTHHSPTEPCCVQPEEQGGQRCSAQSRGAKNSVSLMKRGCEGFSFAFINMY
In short: (§1)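 Each entry records the cell line, G-protein, co-transfected protein and tags used. Methods varied with the source, often transient luciferase assays in mammalian cell lines. A receptor–molecule pair is called responsive (active) if the original authors judged its signal statistically different from baseline and non-responsive (inactive) otherwise.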

O10J5 = tested on: T2, O10J5
T2 sequence (whole entry): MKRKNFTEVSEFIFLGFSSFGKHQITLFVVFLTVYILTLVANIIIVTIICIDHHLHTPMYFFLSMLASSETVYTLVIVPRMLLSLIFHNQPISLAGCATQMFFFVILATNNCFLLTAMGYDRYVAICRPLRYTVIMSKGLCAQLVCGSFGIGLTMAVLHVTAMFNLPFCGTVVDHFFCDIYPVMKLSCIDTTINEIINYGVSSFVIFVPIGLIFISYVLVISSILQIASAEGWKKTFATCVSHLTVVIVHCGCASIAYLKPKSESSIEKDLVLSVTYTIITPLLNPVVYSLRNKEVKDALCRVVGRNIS
In short: as §1

O10P1 = tested on: T3, O10P1
T3 sequence (whole entry): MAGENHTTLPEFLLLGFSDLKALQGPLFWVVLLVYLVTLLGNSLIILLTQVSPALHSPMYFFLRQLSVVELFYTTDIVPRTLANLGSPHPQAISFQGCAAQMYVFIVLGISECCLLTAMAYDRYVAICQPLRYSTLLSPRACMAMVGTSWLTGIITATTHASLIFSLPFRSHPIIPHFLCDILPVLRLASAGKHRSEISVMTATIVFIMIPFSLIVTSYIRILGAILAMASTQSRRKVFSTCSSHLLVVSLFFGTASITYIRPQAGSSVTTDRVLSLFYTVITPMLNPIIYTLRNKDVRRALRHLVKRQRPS
In short: as §1

O10Q1 = tested on: T4, O10Q1
T4 sequence (whole entry): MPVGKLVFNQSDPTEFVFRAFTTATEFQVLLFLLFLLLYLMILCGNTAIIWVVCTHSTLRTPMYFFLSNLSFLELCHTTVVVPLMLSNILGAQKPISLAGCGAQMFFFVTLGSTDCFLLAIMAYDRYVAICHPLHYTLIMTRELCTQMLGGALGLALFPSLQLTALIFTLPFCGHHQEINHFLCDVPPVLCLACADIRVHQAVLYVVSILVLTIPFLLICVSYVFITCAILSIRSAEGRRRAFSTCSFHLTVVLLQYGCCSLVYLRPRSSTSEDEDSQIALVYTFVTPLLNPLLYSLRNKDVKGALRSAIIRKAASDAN
In short: as §1

O10R2 [1] = tested on: T5, O10R2
T5 sequence (whole entry): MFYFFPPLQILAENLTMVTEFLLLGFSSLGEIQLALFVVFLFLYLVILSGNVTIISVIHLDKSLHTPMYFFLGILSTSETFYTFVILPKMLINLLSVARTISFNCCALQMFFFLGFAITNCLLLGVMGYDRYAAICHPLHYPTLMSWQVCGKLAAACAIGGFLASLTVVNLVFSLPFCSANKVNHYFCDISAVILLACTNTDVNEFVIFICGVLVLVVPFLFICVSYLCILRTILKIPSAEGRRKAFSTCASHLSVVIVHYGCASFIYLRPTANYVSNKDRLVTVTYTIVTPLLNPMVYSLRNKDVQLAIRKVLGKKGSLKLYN
In short: as §1

O10R2 [2] = tested on: T6, O10R2; remark: listed apart in the source
T6 sequence (whole entry): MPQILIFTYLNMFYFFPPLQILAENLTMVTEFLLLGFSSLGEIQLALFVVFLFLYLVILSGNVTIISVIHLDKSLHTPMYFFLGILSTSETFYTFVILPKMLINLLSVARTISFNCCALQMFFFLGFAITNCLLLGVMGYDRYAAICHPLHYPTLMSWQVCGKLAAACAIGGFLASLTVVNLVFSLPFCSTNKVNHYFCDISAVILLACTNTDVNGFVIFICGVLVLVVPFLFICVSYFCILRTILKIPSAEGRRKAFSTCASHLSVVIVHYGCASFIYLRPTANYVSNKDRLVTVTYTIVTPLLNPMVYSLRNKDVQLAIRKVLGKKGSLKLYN
In short: as §1

O10V1 = tested on: T7, O10V1
T7 sequence (whole entry): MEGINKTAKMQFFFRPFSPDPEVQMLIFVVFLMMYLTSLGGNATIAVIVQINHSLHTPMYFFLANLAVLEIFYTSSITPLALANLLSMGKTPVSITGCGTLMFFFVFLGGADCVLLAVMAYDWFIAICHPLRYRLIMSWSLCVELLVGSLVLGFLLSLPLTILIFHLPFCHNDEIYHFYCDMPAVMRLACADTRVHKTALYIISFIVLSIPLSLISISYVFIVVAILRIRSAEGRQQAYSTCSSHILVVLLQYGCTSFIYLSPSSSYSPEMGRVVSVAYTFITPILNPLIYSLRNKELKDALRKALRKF
In short: as §1

O10W1 = tested on: T8, O10W1
T8 sequence (whole entry): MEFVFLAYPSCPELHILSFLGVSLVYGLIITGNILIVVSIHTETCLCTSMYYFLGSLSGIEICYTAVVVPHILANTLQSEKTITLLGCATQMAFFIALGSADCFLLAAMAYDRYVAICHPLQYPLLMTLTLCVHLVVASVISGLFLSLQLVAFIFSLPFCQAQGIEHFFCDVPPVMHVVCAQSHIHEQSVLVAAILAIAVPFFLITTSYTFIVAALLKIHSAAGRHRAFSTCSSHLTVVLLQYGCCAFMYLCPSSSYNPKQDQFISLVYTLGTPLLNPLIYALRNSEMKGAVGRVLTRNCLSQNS
In short: as §1

O10X1 = tested on: T9, O10X1
T9 sequence (whole entry): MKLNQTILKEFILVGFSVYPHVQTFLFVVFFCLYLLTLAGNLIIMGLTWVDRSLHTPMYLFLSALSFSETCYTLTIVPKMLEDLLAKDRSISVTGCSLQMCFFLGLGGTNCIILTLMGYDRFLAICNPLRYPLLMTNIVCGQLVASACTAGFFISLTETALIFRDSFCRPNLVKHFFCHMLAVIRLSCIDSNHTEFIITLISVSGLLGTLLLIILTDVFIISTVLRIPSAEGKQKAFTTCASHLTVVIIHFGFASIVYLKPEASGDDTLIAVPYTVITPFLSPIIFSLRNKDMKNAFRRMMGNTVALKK
In short: as §1

O11G2 = tested on: T10, O11G2
T10 sequence (whole entry): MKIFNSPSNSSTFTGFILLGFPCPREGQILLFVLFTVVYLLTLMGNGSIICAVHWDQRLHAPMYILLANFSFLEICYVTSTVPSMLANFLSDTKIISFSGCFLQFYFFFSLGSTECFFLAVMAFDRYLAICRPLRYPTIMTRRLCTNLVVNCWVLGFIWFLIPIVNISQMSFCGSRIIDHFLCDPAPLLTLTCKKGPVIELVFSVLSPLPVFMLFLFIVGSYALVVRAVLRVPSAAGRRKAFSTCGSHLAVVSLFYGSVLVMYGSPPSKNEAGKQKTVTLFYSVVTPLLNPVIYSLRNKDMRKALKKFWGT
In short: as §1

O11H1 [3] = tested on: T11, O11H1
T11 sequence (whole entry): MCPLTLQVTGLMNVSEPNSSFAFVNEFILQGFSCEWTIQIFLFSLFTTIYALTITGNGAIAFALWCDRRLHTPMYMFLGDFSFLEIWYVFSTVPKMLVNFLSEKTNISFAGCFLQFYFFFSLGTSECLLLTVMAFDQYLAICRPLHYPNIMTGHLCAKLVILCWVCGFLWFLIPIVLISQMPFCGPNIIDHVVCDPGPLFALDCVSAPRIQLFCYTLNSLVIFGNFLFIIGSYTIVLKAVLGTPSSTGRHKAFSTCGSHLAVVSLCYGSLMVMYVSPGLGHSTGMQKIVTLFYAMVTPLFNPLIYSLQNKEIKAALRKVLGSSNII
In short: as §1

O11H1 [4] = tested on: T12, O11H1; remark: listed apart in the source
T12 sequence (whole entry): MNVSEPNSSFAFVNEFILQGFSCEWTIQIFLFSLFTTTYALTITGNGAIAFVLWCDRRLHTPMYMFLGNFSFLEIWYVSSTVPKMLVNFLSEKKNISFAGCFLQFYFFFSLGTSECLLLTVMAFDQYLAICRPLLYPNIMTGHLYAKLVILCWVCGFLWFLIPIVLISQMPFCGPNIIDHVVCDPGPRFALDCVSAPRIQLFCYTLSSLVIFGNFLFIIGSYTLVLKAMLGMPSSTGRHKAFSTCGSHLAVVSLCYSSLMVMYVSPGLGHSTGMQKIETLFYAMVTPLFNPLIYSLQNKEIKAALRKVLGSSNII
In short: as §1

O11H2 = tested on: T13, O11H2
T13 sequence (whole entry): T11 sequence (whole entry) with F90S, T105K, H146L, C156Y, M181K, V192I, N218S, I235L, T243M, V289E
In short: as §1

O11H4 = tested on: T14, O11H4
T14 sequence (whole entry): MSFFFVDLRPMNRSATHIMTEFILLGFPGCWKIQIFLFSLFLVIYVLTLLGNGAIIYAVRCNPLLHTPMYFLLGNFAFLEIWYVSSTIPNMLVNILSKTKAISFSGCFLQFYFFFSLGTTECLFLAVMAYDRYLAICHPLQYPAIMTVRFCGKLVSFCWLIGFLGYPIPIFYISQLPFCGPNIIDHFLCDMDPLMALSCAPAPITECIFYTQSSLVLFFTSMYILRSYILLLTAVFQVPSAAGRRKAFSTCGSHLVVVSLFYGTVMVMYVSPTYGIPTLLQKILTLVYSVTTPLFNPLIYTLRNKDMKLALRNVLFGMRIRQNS
In short: as §1

O11L1 = tested on: T15, O11L1
T15 sequence (whole entry): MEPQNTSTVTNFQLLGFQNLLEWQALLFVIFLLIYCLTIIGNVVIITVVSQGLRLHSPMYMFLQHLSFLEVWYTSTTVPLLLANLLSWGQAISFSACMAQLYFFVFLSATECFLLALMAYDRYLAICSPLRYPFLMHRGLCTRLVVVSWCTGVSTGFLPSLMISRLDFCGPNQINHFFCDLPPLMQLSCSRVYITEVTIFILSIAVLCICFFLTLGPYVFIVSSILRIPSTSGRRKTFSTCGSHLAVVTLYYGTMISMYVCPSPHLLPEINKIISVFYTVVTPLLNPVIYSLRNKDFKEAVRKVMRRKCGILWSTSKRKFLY
In short: as §1

O12D2 = tested on: T16, O12D2
T16 sequence (whole entry): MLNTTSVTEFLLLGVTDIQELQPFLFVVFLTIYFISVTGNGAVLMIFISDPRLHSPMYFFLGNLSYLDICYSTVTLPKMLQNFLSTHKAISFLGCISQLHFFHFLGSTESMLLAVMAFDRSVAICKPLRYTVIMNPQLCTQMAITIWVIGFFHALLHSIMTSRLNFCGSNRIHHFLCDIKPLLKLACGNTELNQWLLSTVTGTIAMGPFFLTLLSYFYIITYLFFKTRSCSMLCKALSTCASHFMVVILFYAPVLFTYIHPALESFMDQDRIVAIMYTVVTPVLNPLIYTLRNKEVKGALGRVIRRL
In short: as §1

O13C3 = tested on: T17, O13C3
T17 sequence (whole entry): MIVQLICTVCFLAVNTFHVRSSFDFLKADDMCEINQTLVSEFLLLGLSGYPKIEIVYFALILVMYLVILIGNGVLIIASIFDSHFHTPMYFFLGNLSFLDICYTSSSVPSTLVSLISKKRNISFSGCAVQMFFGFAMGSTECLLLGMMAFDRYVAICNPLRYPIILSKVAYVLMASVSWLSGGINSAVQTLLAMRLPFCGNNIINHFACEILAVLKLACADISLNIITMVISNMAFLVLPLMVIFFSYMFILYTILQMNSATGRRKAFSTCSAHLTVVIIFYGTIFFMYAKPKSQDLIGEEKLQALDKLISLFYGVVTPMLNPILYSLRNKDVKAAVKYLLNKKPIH
In short: as §1

O13A1 [5] = tested on: O13A1
In short: as §1

O13A1 [6] = tested on: O13A1; remark: listed apart in the source
In short: as §1

Measured: odorant receptor agonist call

CC(=O)OCC=C(C)CCC=C(C)C
active: O10Q1 | O11G2 | O11H4
not listed: O13A1 [5] | O13A1 [6]
inactive: all other assays above

O=CCc1ccccc1
active: O11G2 | O11H1 [4]
not listed: O13A1 [5] | O13A1 [6]
inactive: all other assays above

C=CC(C)(O)CCC=C(C)C (stereo unspecified)
inactive: all assays above

CCCCCCCCCC=O
not listed: O13A1 [5] | O13A1 [6]
inactive: all other assays above

CCCCCCCC=CC=O
active: O10J5 | O11G2 | O11H1 [4] | O11L1
not listed: O13A1 [5] | O13A1 [6]
inactive: all other assays above

COc1cc(C=O)ccc1O
active: O10J3
not listed: O13A1 [5] | O13A1 [6]
inactive: all other assays above

c1ccc(Oc2ccccc2)cc1
not listed: O13A1 [5] | O13A1 [6]
inactive: all other assays above

CCC=CCCO
not listed: O13A1 [5] | O13A1 [6]
inactive: all other assays above

CC(C)=CCCC(C)=CC=O
not listed: O13A1 [5] | O13A1 [6]
inactive: all other assays above

c1cnccn1
not listed: O13A1 [5] | O13A1 [6]
inactive: all other assays above

CCCCCCOC(=O)CCC
not listed: O13A1 [5] | O13A1 [6]
inactive: all other assays above

CCCCCCCC=O
not listed: O13A1 [5] | O13A1 [6]
inactive: all other assays above
